Measurements from publication PMC7819943, “Rice protein-binding microarrays: a tool to detect cis-acting elements near promoter regions in rice”.
The other results are listed elsewhere or left out.

What follows are sequences tested against T1, OsSMF1 (Oryza sativa, UniProt Q6ZLB0 1-436) (assay: protein-binding microarray (RPBM); PBS, 2% BSA, 51.3 ng/ul salmon testes DNA, 50 uM zinc acetate, 200 nM TF, 25 C, 1 h; high values mean tight binding). Settings: protein: recombinant; tags: N-terminal polyhistidine and DsRed monomer fusion (pET32a); chain copies: 2; label: CyDye5-dUTP incorporated in the synthesized complementary strand; 3' TTTTT single-stranded linker to array surface; dsDNA, one strand shown.
T1 sequence: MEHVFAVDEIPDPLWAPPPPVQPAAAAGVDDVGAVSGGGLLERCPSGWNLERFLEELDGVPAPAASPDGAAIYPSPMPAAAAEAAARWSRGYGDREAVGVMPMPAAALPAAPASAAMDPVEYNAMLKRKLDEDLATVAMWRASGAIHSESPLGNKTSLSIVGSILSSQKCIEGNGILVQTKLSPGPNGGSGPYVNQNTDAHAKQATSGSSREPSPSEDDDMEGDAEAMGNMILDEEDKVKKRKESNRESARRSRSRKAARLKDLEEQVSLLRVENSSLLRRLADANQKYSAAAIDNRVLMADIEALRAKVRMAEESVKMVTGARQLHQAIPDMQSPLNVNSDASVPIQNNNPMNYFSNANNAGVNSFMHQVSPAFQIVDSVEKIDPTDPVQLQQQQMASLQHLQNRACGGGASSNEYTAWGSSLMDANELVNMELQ
In short: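 Binding signal here means per-feature fluorescence intensity in arbitrary units. The values were read on an Axon 4000B scanner after a custom Agilent array, double-stranded by primer extension with Cy5-dUTP, was incubated with 200 nM protein at 25 °C for 1 h in PBS with 2% BSA, salmon testes DNA and 50 µM zinc acetate, then washed. The proteins were transcription factors with an N-terminal polyhistidine tag and DsRed, expressed in E. coli BL21-CodonPlus and purified on Ni–NTA.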
In the case of “GCGGCGACAGGTGGCAGGCCGATGGGCGGGCTAGGGTTTGCGGAGTCACCTAGTGCAG”, the binding signal is reported as 3510 fluorescence intensity (a.u.). “ATACAGGTGGCAATATGGTGAGTTGGCAAACAACCCTCTTCGGAGTCACCTAGTGCAG” was tested, and the binding signal was 7460 fluorescence intensity (a.u.). With “ACAAATCGGTCATTCTTGTCCACCACGCGTCAGTTTATCACGGAGTCACCTAGTGCAG” the binding signal was 5240 fluorescence intensity (a.u.). For “GCGGGAGATGCACGCCGCCAGCATCATCCCGGACTGCATTCGGAGTCACCTAGTGCAG”, the binding signal was 4020 fluorescence intensity (a.u.). In the case of “CGATTCCCGATGCTCGCGAAGTTTCTTTTCTCCGTTTCTCCGGAGTCACCTAGTGCAG”, the binding signal is reported as 22100 fluorescence intensity (a.u.). In the case of “GTTTATATATATGCAATCTGCGCGTGCACCGGCATAGGATCGGAGTCACCTAGTGCAG”, the binding signal is reported as 3880 fluorescence intensity (a.u.). With “CATCTTCCCCATCTACACGTGTGACCCAACATTCAGATTCCGGAGTCACCTAGTGCAG” the binding signal was 4970 fluorescence intensity (a.u.). With “CGCCATCACCGGTCCATCGCCGCCCGCGTCAGCCCCGTCGCGGAGTCACCTAGTGCAG” the binding signal was 7460 fluorescence intensity (a.u.). “AAAATAGTGACGCATATTATCCGGTGTGTGCATGCAAGCTCGGAGTCACCTAGTGCAG” was tested, and the binding signal was 7810 fluorescence intensity (a.u.). With “ATTTAATAACTTCTATGGACAATATGTGCCCTGAAACTACCGGAGTCACCTAGTGCAG” the binding signal was 48800 fluorescence intensity (a.u.). For “ACGCGTTCTTCCTTTCCGCGTTCGTGTGCAGCCCCACAGTCGGAGTCACCTAGTGCAG”, the binding signal was 3470 fluorescence intensity (a.u.). “TGTGGAAGATTATGATTAATTGAAAAGATAATGTACGTGCCGGAGTCACCTAGTGCAG” was tested, and the binding signal was 16700 fluorescence intensity (a.u.). With “TCAGTGAGGATATTAATTGAACTCCCATTGCCAACACCCCCGGAGTCACCTAGTGCAG” the binding signal was 3520 fluorescence intensity (a.u.). In the case of “TACACGAAACTCCAAACAGAAAGGTAACACCTGTCACCCTCGGAGTCACCTAGTGCAG”, the binding signal is reported as 4720 fluorescence intensity (a.u.). In the case of “CTTCATCGGGAACATTTTGAGTGGGCATAAGGTATTTGAGCGGAGTCACCTAGTGCAG”, the binding signal is reported as 32900 fluorescence intensity (a.u.). With “ACTCCGTCTTCCTGGTAACTCACACTCACTTATCTGTATCCGGAGTCACCTAGTGCAG” the binding signal was 3730 fluorescence intensity (a.u.). For “CACTCGCGCCGGCCCACACCCCTCCTCCCGCCTGGCGGCGCGGAGTCACCTAGTGCAG”, the binding signal was 3380 fluorescence intensity (a.u.). “CCTCACATATTACAACGAGGTCCACCGCAGCTATTCCACACGGAGTCACCTAGTGCAG” was tested, and the binding signal was 3530 fluorescence intensity (a.u.). With “TCTGCCCATGGTCTGCCCGGCCGACTCCGTGTCAGTTTCGCGGAGTCACCTAGTGCAG” the binding signal was 3430 fluorescence intensity (a.u.). “ACCTGACGTCAGACGACGATTAGCCACGTGGCACACAGTGCGGAGTCACCTAGTGCAG” was tested, and the binding signal was 31200 fluorescence intensity (a.u.). With “GATACTCCTTAGCAATCATATACTCATATGACATATCCAACGGAGTCACCTAGTGCAG” the binding signal was 3180 fluorescence intensity (a.u.). In the case of “GCCTTGTTTTACTATAAGTTAAGTCATTCCAAGTTTGTAGCGGAGTCACCTAGTGCAG”, the binding signal is reported as 17300 fluorescence intensity (a.u.). With “GCCGCCGCTGACCCGCAGGCCACGCTGCTCAACCTGGGGTCGGAGTCACCTAGTGCAG” the binding signal was 4090 fluorescence intensity (a.u.). In the case of “ATGTAGGATGTCATGTTGTAGTTCTATATATGCGTGGGGTCGGAGTCACCTAGTGCAG”, the binding signal is reported as 3270 fluorescence intensity (a.u.). For “CAGTAGTACATTGCTACACACGCGAGCAGACGGCTAGGCCCGGAGTCACCTAGTGCAG”, the binding signal was 3920 fluorescence intensity (a.u.). “GAAAAGAGAACCCTATCTGCAATCGCCTCTTTGCCTCCCCCGGAGTCACCTAGTGCAG” was tested, and the binding signal was 16600 fluorescence intensity (a.u.). In the case of “CTACGCTGCAGCTTGGTGACACTAGTGATTAACTATCTTGCGGAGTCACCTAGTGCAG”, the binding signal is reported as 3460 fluorescence intensity (a.u.). For “CGAGTACTAGTGCGTAGTACTAGCCGTGTACCACCCACCTCGGAGTCACCTAGTGCAG”, the binding signal was 3330 fluorescence intensity (a.u.). In the case of “CATATACTGGTTCAAATTCGTAGTATTTGGTTGTCTAATCCGGAGTCACCTAGTGCAG”, the binding signal is reported as 3710 fluorescence intensity (a.u.). For “ATCATCCCCGTATTCCCGTGTGCCAGTCGACCAAACGCGTCGGAGTCACCTAGTGCAG”, the binding signal was 3680 fluorescence intensity (a.u.). “GGTTATTTGGATGGGCTTTCCAACAAATTGGCCCACTATGCGGAGTCACCTAGTGCAG” was tested, and the binding signal was 3470 fluorescence intensity (a.u.). “CGGACGCTAAGTCAATTTGGCACGTCGATGCCACGTCAGTCGGAGTCACCTAGTGCAG” was tested, and the binding signal was 15900 fluorescence intensity (a.u.). “AACCAACGGCCCAGATCACGCCGCTGACGTGTACTCCCTCCGGAGTCACCTAGTGCAG” was tested, and the binding signal was 21100 fluorescence intensity (a.u.). “TTAAAACCGATTCAAACACGGATGACGTATCAAAGTACCGCGGAGTCACCTAGTGCAG” was tested, and the binding signal was 9180 fluorescence intensity (a.u.). “TCGTCCCGGCGCTCTTCCCGCTCGCGCACGCCGACGCCGCCGGAGTCACCTAGTGCAG” was tested, and the binding signal was 29200 fluorescence intensity (a.u.). With “TCGAACAGAACATCTCCTACATGACACGAGAGGTATTACGCGGAGTCACCTAGTGCAG” the binding signal was 3510 fluorescence intensity (a.u.). With “TCCTCTTAATCCAATGCACGCGTACCAACCACGCGTGGAACGGAGTCACCTAGTGCAG” the binding signal was 3720 fluorescence intensity (a.u.). In the case of “TCCTAAAATGTACTAGCAACATAGTATTTAATTAGATATCCGGAGTCACCTAGTGCAG”, the binding signal is reported as 3160 fluorescence intensity (a.u.). In the case of “GCTGGTTTGATTAGATCTTCATCCCACGTGGCATTGACGTCGGAGTCACCTAGTGCAG”, the binding signal is reported as 25100 fluorescence intensity (a.u.). “TGGTGATATCAATAGGATTGGAAGAGATTTGTCAGCCTATCGGAGTCACCTAGTGCAG” was tested, and the binding signal was 3450 fluorescence intensity (a.u.). In the case of “CGCGCGCGGACGTAGGGATCGCCGACGCGCGCGGGTGGCACGGAGTCACCTAGTGCAG”, the binding signal is reported as 4050 fluorescence intensity (a.u.). In the case of “ACCACACAAAGACACACGTACTTGTATACACAGCTCTCGCCGGAGTCACCTAGTGCAG”, the binding signal is reported as 3300 fluorescence intensity (a.u.). With “TGTTAGAGGTGATGGTTTGGATGCGTCACAGGTGACTTTGCGGAGTCACCTAGTGCAG” the binding signal was 7330 fluorescence intensity (a.u.). In the case of “ATTCGCTTCGATCCAGCGTGTCACGCGGAATCCGCCCGTTCGGAGTCACCTAGTGCAG”, the binding signal is reported as 6610 fluorescence intensity (a.u.). For “ACAGCCTCGCGGGCCCCAGGATGCCAGGACACACGAAATCCGGAGTCACCTAGTGCAG”, the binding signal was 3160 fluorescence intensity (a.u.). For “TCTGCCCGAATGACATGGCGGATAGATTTTACAATGGATGCGGAGTCACCTAGTGCAG”, the binding signal was 5460 fluorescence intensity (a.u.). In the case of “TGACATGCAACAATGAGGGATGTTTCTTTAAGGGATGAAACGGAGTCACCTAGTGCAG”, the binding signal is reported as 3330 fluorescence intensity (a.u.). In the case of “CCTAACCAGTCACAGGTGACTAGTTACCTGTGACGGGTCGCGGAGTCACCTAGTGCAG”, the binding signal is reported as 5480 fluorescence intensity (a.u.). “AGACGCAGCAATCGTGACAAACACAGGATAAATCCTCACTCGGAGTCACCTAGTGCAG” was tested, and the binding signal was 3440 fluorescence intensity (a.u.). In the case of “GCCCGGCTGGACACCGTGGCCGCGCTGGCAGACGCTGATCCGGAGTCACCTAGTGCAG”, the binding signal is reported as 3650 fluorescence intensity (a.u.). With “GAATTTGTTTATGCCACGTGAGCTGCCTCACACGTGTCACCGGAGTCACCTAGTGCAG” the binding signal was 7810 fluorescence intensity (a.u.). With “CGGCCATGCCGCCTTGCGTGTGGGGATCGCACACACCTCTCGGAGTCACCTAGTGCAG” the binding signal was 3240 fluorescence intensity (a.u.). For “ACTGCACTTATTTTGGGACGGAGTTAGTAGATTACTAGATCGGAGTCACCTAGTGCAG”, the binding signal was 3710 fluorescence intensity (a.u.). “TATTTGTATTATGTTGCAAATGTTGCAATATATATATTTACGGAGTCACCTAGTGCAG” was tested, and the binding signal was 15300 fluorescence intensity (a.u.).
